Some of the results follow.

Amino acid sequences for entries named in this document (tags omitted).
UniProt Q0JBA9, entry or part of it: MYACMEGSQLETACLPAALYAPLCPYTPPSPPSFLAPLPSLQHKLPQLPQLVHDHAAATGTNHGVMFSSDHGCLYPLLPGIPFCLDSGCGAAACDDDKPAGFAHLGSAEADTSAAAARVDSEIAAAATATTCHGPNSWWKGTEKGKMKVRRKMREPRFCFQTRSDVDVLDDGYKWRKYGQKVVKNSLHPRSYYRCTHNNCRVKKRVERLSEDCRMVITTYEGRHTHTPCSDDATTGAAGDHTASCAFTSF

This experiment concerns the target OsWRKY34 (Oryza sativa, UniProt Q0JBA9 1-250). Briefly: protein-binding microarray (RPBM); PBS, 2% BSA, 51.3 ng/ul salmon testes DNA, 50 uM zinc acetate, 200 nM TF, 25 C, 1 h; high values mean tight binding. Conditions: protein: recombinant; tags: N-terminal polyhistidine and DsRed monomer fusion (pET32a); label: CyDye5-dUTP incorporated in the synthesized complementary strand; 3' TTTTT single-stranded linker to array surface; dsDNA, one strand shown. The method, boiled down:
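Using Ni–NTA, transcription factors fused N-terminally to polyhistidine and DsRed were purified after expression in E. coli BL21-CodonPlus. These were incubated at 200 nM with a blocked, double-stranded custom Agilent array for 1 h at 25 °C in a buffer containing 50 µM zinc acetate, and the array was washed. The binding signal is per-feature fluorescence intensity (arbitrary units) on an Axon 4000B scanner.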
Consider “TTAACCTTTACTATAATGACATTGGACCCATATTTCGTAGCGGAGTCACCTAGTGCAG”, for which the binding signal was 9270 fluorescence intensity (a.u.).

Consider “ACCGTTGACTTTTTAGCACATGTTTGACCGCTCGTCTTATCGGAGTCACCTAGTGCAG”, for which the binding signal is 54800 fluorescence intensity (a.u.).

On to “CAAAATACTGCCCACACACGCATACCCCAAATTCCACCCCCGGAGTCACCTAGTGCAG”, for which the binding signal was 8240 fluorescence intensity (a.u.).

Take “CGTCTGGCCCGAAAACCACTCTATTAATTCCATTTGCATCCGGAGTCACCTAGTGCAG”: the binding signal is 8080 fluorescence intensity (a.u.).

Take “TAAACCGCCAACATGCCCATGGTTTTGGACCTTTTTTTGTCGGAGTCACCTAGTGCAG”: the binding signal is 8060 fluorescence intensity (a.u.).

Regarding “CCCCAACACTGTCCTTGCAACTTTATCGGTTAGAATGCTACGGAGTCACCTAGTGCAG”, the binding signal is 8320 fluorescence intensity (a.u.).

With “GTACGCGCACACACACATGAGACATATATACACCGATCTGCGGAGTCACCTAGTGCAG”, the binding signal was 8580 fluorescence intensity (a.u.).

As to “GTCTTCCTCGGTGTCTCCGCCCCGCCGTCTCCGATCTCCCCGGAGTCACCTAGTGCAG”, the binding signal is 9950 fluorescence intensity (a.u.).

For the sequence “TTACATCCTTCATTTCTTTGGACCGTGCCTTGGAATAAGTCGGAGTCACCTAGTGCAG”, the binding signal was 9620 fluorescence intensity (a.u.).

For “GCACATTAACGCACGCCACCCACCGCCACCTACTCGCCACCGGAGTCACCTAGTGCAG”, the binding signal was 9060 fluorescence intensity (a.u.).

In the case of “TATCACCTCGTTTTCTTTCCATTGTGCTACCAACTGTGCTCGGAGTCACCTAGTGCAG”, the binding signal was 8260 fluorescence intensity (a.u.).

With “TTCCTTCAAGTCACTTTGTTTTCATATCATGAACCTTCCACGGAGTCACCTAGTGCAG”, the binding signal is 8050 fluorescence intensity (a.u.).

For “TCATGCCTTGATTTTTCTCTGTTTTGAACTGCAATTGCAGCGGAGTCACCTAGTGCAG”, the binding signal was 8910 fluorescence intensity (a.u.).

For the sequence “ATGAGGAATGAAGTACTCTCCACCATTTTCTTGCTCCTCACGGAGTCACCTAGTGCAG”, the binding signal is 8420 fluorescence intensity (a.u.).

Take “AGTCAACGTTTCTATTAGAAAATTTTCCCTTTGCCCTTAACGGAGTCACCTAGTGCAG”: the binding signal was 9670 fluorescence intensity (a.u.).

Regarding “CTGTTATTATTAAATCATCAAATTCTTTCTTGCACCAGTTCGGAGTCACCTAGTGCAG”, the binding signal is 8260 fluorescence intensity (a.u.).

Turning to “TTATTCCACTCTCCAAAACGTCATTACTGATTTGCTTTTCCGGAGTCACCTAGTGCAG”, the binding signal is 8100 fluorescence intensity (a.u.).

In the case of “CTTCCATCCACGATCCAATATGACAATATGACATCCAACACGGAGTCACCTAGTGCAG”, the binding signal is 9210 fluorescence intensity (a.u.).

Consider “ACAAGTGAATATAACACTAACCTCGTATGTCATGTTGTCTCGGAGTCACCTAGTGCAG”, for which the binding signal is 8980 fluorescence intensity (a.u.).

As for “ACCACCGCCGCGGCGGCGTCGCCCACGCCGTGCCGCCCCGCGGAGTCACCTAGTGCAG”, the binding signal was 8160 fluorescence intensity (a.u.).

As for “CCACCCCACGCGCCGCGCGGTCTCGCTTCGCCTCCGCGCGCGGAGTCACCTAGTGCAG”, the binding signal is 10500 fluorescence intensity (a.u.).

With “GTAGCCCACACGTGTTATCGTTGCCAAGCTTGCCACCCAACGGAGTCACCTAGTGCAG”, the binding signal was 11900 fluorescence intensity (a.u.).

“AAGTTGGAAGTTTGTGTGTGTAGGAAAGTTTGATGTGATACGGAGTCACCTAGTGCAG”: the binding signal was 9600 fluorescence intensity (a.u.).

As for “CGGGGAGTCGTTGCTGTTCTTGTTCTTGGTCGAGGTTGAGCGGAGTCACCTAGTGCAG”, the binding signal was 14500 fluorescence intensity (a.u.).

With “CCACCAGCGCCACCGCTTCTTCTTCTTTCGATTCTTCTTCCGGAGTCACCTAGTGCAG”, the binding signal was 9450 fluorescence intensity (a.u.).

Regarding “CTTGATGTGGTTGGAACTTGGAAGGCAGATTTGCTTGAACCGGAGTCACCTAGTGCAG”, the binding signal was 9280 fluorescence intensity (a.u.).

As to “GCCGTCCCCAGCCGCGACCACCGTCGCCGTCCGCACCGTCCGGAGTCACCTAGTGCAG”, the binding signal is 8320 fluorescence intensity (a.u.).

“CTGTCCTCTTTTGTCGATCCTGTTCAGTTGCTTGTCGCAACGGAGTCACCTAGTGCAG”: the binding signal is 8390 fluorescence intensity (a.u.).

“GTTTACATGTGTAGATCTAATGATGCGTTCAATCTAGTTTCGGAGTCACCTAGTGCAG”: the binding signal was 8860 fluorescence intensity (a.u.).

Turning to “GGGATTGGATTGGGTTGGGTTGGATTGGAGAGAGAGAATGCGGAGTCACCTAGTGCAG”, the binding signal was 31400 fluorescence intensity (a.u.).

As to “ACAGCTCCAAATTTTGCCTCCGTTGTCCTTTTTTTCTCTCCGGAGTCACCTAGTGCAG”, the binding signal was 9340 fluorescence intensity (a.u.).

“TGCTAGGACACTCTCCCCATCCTTGGAATCTGTTGCATTCCGGAGTCACCTAGTGCAG”: the binding signal was 8900 fluorescence intensity (a.u.).

In the case of “CTCTAATACATTGTCTCGTTTTTCTCTATAGACTATCTCCCGGAGTCACCTAGTGCAG”, the binding signal was 11900 fluorescence intensity (a.u.).

With “ATTTCCAAGCTCTCTTTGCAGTTACTCCTCGGTGTGCTCCCGGAGTCACCTAGTGCAG”, the binding signal was 8250 fluorescence intensity (a.u.).

With “AGTAGTACTAGGAGTGGTGCTCACTTGCACACTATTTCACCGGAGTCACCTAGTGCAG”, the binding signal is 8050 fluorescence intensity (a.u.).

As for “ATTACACCCTAGCATGTACATATTCTTCTATAATGTGTTACGGAGTCACCTAGTGCAG”, the binding signal was 11100 fluorescence intensity (a.u.).

As to “TGCTATCACTCTCTCACCACCGCTAGAGATCACCATTGTGCGGAGTCACCTAGTGCAG”, the binding signal was 9110 fluorescence intensity (a.u.).

“ACACATCATCCACGTACTGAGGCCACACACTGATCTATTACGGAGTCACCTAGTGCAG”: the binding signal is 11400 fluorescence intensity (a.u.).

In the case of “CGAGCTGGCGCACTGGTCCACACTATTCTCCACCCGCTTCCGGAGTCACCTAGTGCAG”, the binding signal was 8960 fluorescence intensity (a.u.).

“ACTAAGTGCGTGATTGTTTCAGATTTGTTTGGGTTGCGGTCGGAGTCACCTAGTGCAG”: the binding signal is 9410 fluorescence intensity (a.u.).

As to “CACTCCGTCACGGCCGCCACCGCGACCACTTTTTCCCGTCCGGAGTCACCTAGTGCAG”, the binding signal was 9430 fluorescence intensity (a.u.).

Turning to “CCACTCACTCTGTGTTTCACTTGCTGCCTTTCAGTTGCAACGGAGTCACCTAGTGCAG”, the binding signal is 8820 fluorescence intensity (a.u.).

Values taken from article PMC7819943, “Rice protein-binding microarrays: a tool to detect cis-acting elements near promoter regions in rice”.
